Measured values reported in patent US9586891B2, “Estrogen receptor ligands” (Karo Pharma AB, priority 2011, dated 2017).
Some entries share one result that the patent states for a list of compounds. One block for each compound: values may come before it.

Protein sequences, listed by entry. Tags and fused reporters are not part of them.
UniProt Q92731, whole entry: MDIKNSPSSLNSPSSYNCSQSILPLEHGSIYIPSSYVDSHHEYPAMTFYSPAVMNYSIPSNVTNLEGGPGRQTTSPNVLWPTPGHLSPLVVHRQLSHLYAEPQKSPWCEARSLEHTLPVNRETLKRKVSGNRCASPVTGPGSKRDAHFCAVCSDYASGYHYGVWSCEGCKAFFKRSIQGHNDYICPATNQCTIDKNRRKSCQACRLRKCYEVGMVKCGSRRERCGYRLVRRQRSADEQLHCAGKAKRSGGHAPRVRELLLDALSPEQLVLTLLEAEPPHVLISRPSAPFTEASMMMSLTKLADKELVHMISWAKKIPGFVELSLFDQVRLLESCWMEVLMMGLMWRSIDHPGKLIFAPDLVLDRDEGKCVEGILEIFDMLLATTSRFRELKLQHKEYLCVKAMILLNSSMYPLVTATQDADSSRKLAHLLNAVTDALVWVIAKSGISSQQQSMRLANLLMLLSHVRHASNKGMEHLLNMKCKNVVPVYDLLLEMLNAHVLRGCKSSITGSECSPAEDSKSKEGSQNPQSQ

Biological target: T1, human estrogen receptor beta (Homo sapiens, UniProt Q92731)
T1 construct: expressed in transfected cells; host or cells: HEK293 (CRL-1573)
Experiment: Transactivation assay 2: human embryonic kidney 293 cells stably transfected with pERE2-ALP and human estrogen receptor beta
Assay type: cell-based
Details: in the transactivation assays 1 and 2

- selectivity for the estrogen receptor β-subtype over the estrogen receptor α-subtype: ≥ 50
SMILES: Cc1cc(C(N)=NO)c(-c2ccc(F)cc2F)c(-c2ccc(O)cc2)c1 [Example 203, 2′′,4′′-difluoro-N′,4-dihydroxy-5′-methyl-[1,1′:2′,1′′-terphenyl]-3′-carboximidamide]

- selectivity for the estrogen receptor β-subtype over the estrogen receptor α-subtype: ≥ 20
SMILES: NC(=NO)c1cc(C(F)(F)F)cc(-c2ccc(O)cc2)c1C1=CCCC1 [Example 275, 2-(cyclopent-1-en-1-yl)-N,′4′-dihydroxy-5-(trifluoromethyl)-[1,1′-biphenyl]-3-carboximidamide]

- selectivity for the estrogen receptor β-subtype over the estrogen receptor α-subtype: ≥ 20
SMILES: NC(=O)c1cc(C(F)(F)F)cc(-c2ccc(O)cc2)c1-c1cc(Cl)ccc1Cl [Example 181, 2′′,5′′-dichloro-4-hydroxy-5′-(trifluoromethyl)-[1,1′:2′,1′′-terphenyl]-3′-carboxamide]

- selectivity for the estrogen receptor β-subtype over the estrogen receptor α-subtype: ≥ 20
SMILES: N#Cc1ccccc1-c1c(C(N)=NO)cc(C(F)(F)F)cc1-c1ccc(O)cc1 [Example 324, 2″-cyano-N′,4-dihydroxy-5′-(trifluoromethyl)-[1,1′:2′,1″-terphenyl]-3′-carboximidamide]

- selectivity for the estrogen receptor β-subtype over the estrogen receptor α-subtype: ≥ 20
SMILES: Cc1noc(C)c1-c1c(C(N)=O)cc(C(F)(F)F)cc1-c1ccc(O)cc1F [Example 185, 2-(3,5-dimethylisoxazol-4-yl)-2′-fluoro-4′-hydroxy-5(trifluoromethyl)-[1,1′-biphenyl]-3-carboxamide]

- selectivity for the estrogen receptor β-subtype over the estrogen receptor α-subtype: ≥ 20
SMILES: Cc1noc(C)c1-c1c(C(N)=NO)cc(C(F)(F)F)cc1-c1cc(F)c(O)c(Cl)c1 [Example 300, 3′-chloro-2-(3,5-dimethylisoxazol-4-yl)-5′-fluoro-N′,4′-dihydroxy-5-(trifluoromethyl)-[1,1′-biphenyl]-3-carboximidamide]

- selectivity for the estrogen receptor β-subtype over the estrogen receptor α-subtype: ≥ 20
SMILES: Cc1c(Cl)cccc1-c1c(C(N)=O)cc(C(F)(F)F)cc1-c1ccc(O)cc1F [Example 139, 3′′-chloro-2-fluoro-4-hydroxy-2′′-methyl-5′-(trifluoromethyl)-[1,1′:2′,1′′-terphenyl]-3′-carboxamide]

- selectivity for the estrogen receptor β-subtype over the estrogen receptor α-subtype: ≥ 20
SMILES: Cc1ccc(-c2c(C(N)=NO)cc(Cl)cc2-c2ccc(O)cc2)c(F)c1 [Example 255, 5′-chloro-2′′-fluoro-N′,4-dihydroxy-4′′-methyl-[1,1′:2′,1′′-terphenyl]-3′-carboximidamide]

- selectivity for the estrogen receptor β-subtype over the estrogen receptor α-subtype: ≥ 20
SMILES: Cc1ccccc1-c1c(C(N)=NO)cc(C(F)(F)F)cc1-c1ccc(O)cc1F [Example 124, 2-fluoro-N′,4-dihydroxy-2′′-methyl-5′-(trifluoromethyl)-[1,1′:2′,1′′-terphenyl]-3′-carboximidamide]

- selectivity for the estrogen receptor β-subtype over the estrogen receptor α-subtype: ≥ 20
SMILES: NC(=NO)c1cc(C(F)(F)F)cc(-c2ccc3[nH]ncc3c2)c1-c1cc(F)ccc1F [Example 349, 2′,5′-difluoro-N′-hydroxy-6-(1H-indazol-5-yl)-4-(trifluoromethyl)-[1,1′-biphenyl]-2-carboximidamide]

- selectivity for the estrogen receptor β-subtype over the estrogen receptor α-subtype: ≥ 20
SMILES: NC(=NO)c1cc(C(F)(F)F)cc(-c2ccc3[nH]ncc3c2)c1-c1cccc2ccccc12 [Example 351, N′-hydroxy-3-(1H-indazol-5-yl)-2-(naphthalen-1-yl)-5-(trifluoromethyl)benzimidamide]

- selectivity for the estrogen receptor β-subtype over the estrogen receptor α-subtype: ≥ 20
SMILES: CCCc1cc(C(N)=NO)c(-c2sccc2C)c(-c2ccc(O)cc2F)c1 [Example 56, 2′-fluoro-N′,4′-dihydroxy-2-(3-methylthiophen-2-yl)-5-propyl-[1,1′-biphenyl]-3-carboximidamide]

- selectivity for the estrogen receptor β-subtype over the estrogen receptor α-subtype: ≥ 20
SMILES: Cc1cscc1-c1c(C(N)=NO)cc(C(F)(F)F)cc1-c1ccc(O)cc1 [Example 44, N′,4′-dihydroxy-2-(4-methylthiophen-3-yl)-5-(trifluoromethyl)-[1,1′-biphenyl]-3-carboximidamide]

- selectivity for the estrogen receptor β-subtype over the estrogen receptor α-subtype: ≥ 20
SMILES: Cc1ccc(Cl)c(-c2c(C(N)=O)cc(C(F)(F)F)cc2-c2ccc(O)cc2)c1 [Example 173, 2′′-chloro-4-hydroxy-5′′-methyl-5′-(trifluoromethyl)-[1,1′:2′,1′′-terphenyl]-3′-carboxamide]

Further lines, the compound ahead of its results:

SMILES: CCCc1cc(C(N)=NO)c(-c2sccc2C)c(-c2ccc(O)c(F)c2F)c1 [Example 57, 2′,3′-difluoro-N′,4′-dihydroxy-2-(3-methylthiophen-2-yl)-5-propyl-[1,1′-biphenyl]-3-carboximidamide]
- selectivity for the estrogen receptor β-subtype over the estrogen receptor α-subtype: ≥ 20

SMILES: CCCc1cc(C(N)=NO)c(-c2cscc2C)c(-c2ccc(O)cc2)c1 [Example 19, N′,4′-dihydroxy-2-(4-methylthiophen-3-yl)-5-propyl-[1,1′-biphenyl]-3-carboximidamide]
- selectivity for the estrogen receptor β-subtype over the estrogen receptor α-subtype: ≥ 20

SMILES: CCc1ccccc1-c1c(C(N)=NO)cccc1-c1ccc(O)cc1 [Example 190, 2′′-ethyl-N′,4-dihydroxy-[1,1′:2′,1′′-terphenyl]-3′-carboximidamide]
- selectivity for the estrogen receptor β-subtype over the estrogen receptor α-subtype: ≥ 20

SMILES: CCCc1cc(C(N)=NO)c(-c2sccc2C)c(-c2cc(F)c(O)c(F)c2)c1 [Example 7, 3′,5′-difluoro-N′,4′-dihydroxy-2-(3-methylthiophen-2-yl)-5-propyl-[1,1′-biphenyl]-3-carboximidamide]
- selectivity for the estrogen receptor β-subtype over the estrogen receptor α-subtype: ≥ 20

SMILES: CCCc1cc(C(N)=NO)c(-c2cccc(C)c2)c(-c2ccc(O)cc2)c1 [Example 25, N′,4-dihydroxy-3′′-methyl-5′-propyl-[1,1′:2′,1′′-terphenyl]-3′-carboximidamide]
- selectivity for the estrogen receptor β-subtype over the estrogen receptor α-subtype: ≥ 20

SMILES: CCCc1cc(C(N)=NO)c(-c2cc(F)ccc2C)c(-c2ccc(O)cc2)c1 [Example 26, 5′′-fluoro-N′,4-dihydroxy-2′′-methyl-5′-propyl-[1,1′:2′,1′′-terphenyl]-3′-carboximidamide]
- selectivity for the estrogen receptor β-subtype over the estrogen receptor α-subtype: ≥ 20

SMILES: NC(=NO)c1cc(Br)cc(-c2ccc(O)cc2)c1-c1ccc(Cl)cc1 [Example 293, 5′-bromo-4″-chloro-N′,4-dihydroxy-[1,1′:2′,1″-terphenyl]-3′-carboximidamide]
- selectivity for the estrogen receptor β-subtype over the estrogen receptor α-subtype: ≥ 20

SMILES: CCCc1cc(C(N)=NO)c(-c2c(C)ccn2C)c(-c2ccc(O)cc2)c1 [Example 47, 2-(1,3-dimethyl-1H-pyrrol-2-yl)-N′,4′-dihydroxy-5-propyl-[1,1′-biphenyl]-3-carboximidamide]
- selectivity for the estrogen receptor β-subtype over the estrogen receptor α-subtype: ≥ 20

SMILES: CCCc1cc(C(N)=NO)c(-c2sccc2C)c(-c2ccc(O)c(F)c2)c1 [Example 52, 3′-fluoro-N′,4′-dihydroxy-2-(3-methylthiophen-2-yl)-5-propyl-[1,1′-biphenyl]-3-carboximidamide]
- selectivity for the estrogen receptor β-subtype over the estrogen receptor α-subtype: ≥ 20

SMILES: NC(=NO)c1cc(Cl)cc(-c2ccc(O)cc2)c1-c1cc(F)c(F)c(F)c1 [Example 250, 5′-chloro-3′′,4′′,5′′-trifluoro-N′,4-dihydroxy-[1,1′:2′,1′′-terphenyl]-3′-carboximidamide]
- selectivity for the estrogen receptor β-subtype over the estrogen receptor α-subtype: ≥ 20

SMILES: NC(=NO)c1cccc(-c2ccc(O)cc2)c1-c1cc(F)cc(F)c1 [Example 186, 3′′,5′′-difluoro-N′,4-dihydroxy-[1,1′:2′,1′′-terphenyl]-3′-carboximidamide]
- selectivity for the estrogen receptor β-subtype over the estrogen receptor α-subtype: ≥ 20

SMILES: NC(=NO)c1cc(Cl)cc(-c2ccc(O)cc2)c1-c1ccc2cnccc2c1 [Example 265, 5-chloro-N′,4′-dihydroxy-2-(isoquinolin-6-yl)-[1,1′-biphenyl]-3-carboximidamide]
- selectivity for the estrogen receptor β-subtype over the estrogen receptor α-subtype: ≥ 20

SMILES: Cc1cc(C(N)=NO)c(-c2sccc2C)c(-c2ccc(O)cc2)c1 [Example 6, N′,4′-dihydroxy-5-methyl-2-(3-methylthiophen-2-yl)-[1,1′-biphenyl]-3-carboximidamide]
- selectivity for the estrogen receptor β-subtype over the estrogen receptor α-subtype: ≥ 20

SMILES: NC(=NO)c1cc(C(F)(F)F)cc(-c2ccc3[nH]ncc3c2)c1-c1cc(F)cc(F)c1 [Example 340, 3′,5′-difluoro-N′-hydroxy-6-(1H-indazol-5-yl)-4-(trifluoromethyl)-[1,1′-biphenyl-]-2-carboximidamide]
- selectivity for the estrogen receptor β-subtype over the estrogen receptor α-subtype: ≥ 20

SMILES: Cc1cc(C(N)=NO)c(-c2cc(F)cc(Cl)c2)c(-c2ccc(O)cc2)c1 [Example 144, 3′′-chloro-5′′-fluoro-N′,4-dihydroxy-5′-methyl-[1,1′:2′,1′′-terphenyl]-3′-carboximidamide]
- selectivity for the estrogen receptor β-subtype over the estrogen receptor α-subtype: ≥ 20

SMILES: Cc1noc(C)c1-c1c(-c2ccc(O)cc2)cc(C(F)(F)F)cc1-c1c[nH]nn1 [Example 311, 2′-(3,5-dimethylisoxazol-4-yl)-3′-(1H-1,2,3-triazol-4-yl)-5′-(trifluoromethyl)-[1,1′-biphenyl]-4-ol]
- selectivity for the estrogen receptor β-subtype over the estrogen receptor α-subtype: ≥ 20

SMILES: CC(C)c1cc(C(N)=NO)c(-c2ccccc2)c(-c2ccc(O)cc2)c1 [Example 317, N′,4-dihydroxy-5′-isopropyl-[1,1′:2′,1″-terphenyl]-3′-carboximidamide]
- selectivity for the estrogen receptor β-subtype over the estrogen receptor α-subtype: ≥ 20

SMILES: COc1ccc(-c2c(C(N)=NO)cc(Cl)cc2-c2ccc(O)cc2)c(OC)c1 [Example 257, 5′-chloro-N′,4-dihydroxy-2′′,4′′-dimethoxy-[1,1′:2′,1′′-terphenyl]-3′-carboximidamide]
- selectivity for the estrogen receptor β-subtype over the estrogen receptor α-subtype: ≥ 20

SMILES: NC(=NO)c1cc(Cl)cc(-c2ccc(O)cc2)c1-c1ccc(F)c(F)c1 [Example 249, 5′-chloro-3′′,4′′-difluoro-N′,4-dihydroxy-[1,1′:2′,1′′-terphenyl]-3′-carboximidamide]
- selectivity for the estrogen receptor β-subtype over the estrogen receptor α-subtype: ≥ 20

SMILES: NC(=NO)c1cc(F)cc(-c2ccc(O)cc2)c1-c1cc(F)cc(F)c1 [Example 168, 3′′,5′,5′′-trifluoro-N′,4-dihydroxy-[1,1′:2′,1′′-terphenyl]-3′-carboximidamide]
- selectivity for the estrogen receptor β-subtype over the estrogen receptor α-subtype: ≥ 20

SMILES: CCCc1cc(C(N)=NO)c(-c2ccccc2CC)c(-c2ccc(O)cc2)c1 [Example 27, 2′′-ethyl-N′,4-dihydroxy-5′-propyl-[1,1′:2′,1′′-terphenyl]-3′-carboximidamide]
- selectivity for the estrogen receptor β-subtype over the estrogen receptor α-subtype: ≥ 20
